# Measured values from US5326856A, “Bifunctional isothiocyanate derived thiocarbonyls as ligands for metal binding” (Cytogen Corporation, priority 1992, dated 1994).
# Test: ITLC determination of Tc-99m incorporation and chelating capacity
# [1] = ITLC in 0.9% saline, incubated 90 min at 37° C.
substance,measurement,setting,value
Chelating Agent A-NH-SYRGDVRGDF: chelating agent A coupled with SYRGDVRGDF-NH2 peptide (chelating agent A; C-terminal amide),"gamma radiation, Bottom of ITLC Strip",[1],1752221.2 cpm
same,"gamma radiation, Top of ITLC Strip",[1],117530.0 cpm
same,Percent of Tc-99m Incorporation onto peptide chelator conjugate,"bottom of ITLC strip, 90 min at 37° C., pH 4.5",94%
